The supplement of paper PMC3334620
Over roughly 33,000 sequences, “E-score (-0.5 to 0.5)” has its median near -8e-05; the highest 2% begin near 0.23. The list shows a part of the results.

What follows are sequences tested against T1, Nrg2 (UniProt P38082) (assay: PBM E-score (8-mer binding enrichment) (E-score (-0.5 to 0.5)); higher = stronger / more preferred TF binding). Details: protein concentration: 100 nM; construct: GST-full length.
T1 sequence: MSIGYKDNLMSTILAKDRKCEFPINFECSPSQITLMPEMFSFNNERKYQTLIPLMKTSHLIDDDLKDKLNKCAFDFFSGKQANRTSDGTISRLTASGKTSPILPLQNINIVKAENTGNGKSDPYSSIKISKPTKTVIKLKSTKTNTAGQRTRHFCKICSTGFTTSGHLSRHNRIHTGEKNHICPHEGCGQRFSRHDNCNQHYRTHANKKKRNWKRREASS
In short: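 Full-length yeast transcription factors or their DNA-binding domains, GST-tagged and expressed with PURExpress, were applied at about 100-200 nM to universal all-10-mer Agilent arrays. These arrays had been made double-stranded by primer extension on fresh or once-stripped slides. Detection used fluorescent anti-GST, normalisation used masliner, and E-scores for ungapped eight-base words pooled with reverse complements came from the Universal PBM Analysis Suite.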

| Sequence | PBM E-score |
| --- | --- |
| ATAGCCTA | -0.0628 |
| AGGCTTAT | -0.161 |
| ATAACGGA | 0.167 |
| AATACAGG | 0.13 |
| GCTGCTAA | 0.0172 |
| CGTGCAAC | 0.0176 |
| GTCTTAGA | -0.0799 |
| ACGCGCCC | -0.029 |
| GTTGGCTA | -0.0794 |
| AACAGATC | 0.0888 |
| GGGTTACC | -0.168 |
| CCAGTCCG | -0.219 |
| CCATTATC | 0.0766 |
| CATTTCAC | -0.0548 |
| TAATCAGA | 0.133 |
| GCCCTCAC | -0.177 |
| CTCCGCAC | -0.157 |
| CATCTGCC | -0.105 |
| AACTGCTC | 0.0284 |
| CCTGGGGC | -0.17 |
| ACATGAAT | -0.00677 |
| CGCTCTCC | -0.0921 |
| CCCCTCCA | -0.0431 |
| CTATAACA | -0.182 |
| ACGATGGG | -0.00605 |

| Sequence | PBM E-score |
| --- | --- |
| AGATTCCC | 0.0719 |
| AGGGACTG | 0.119 |
| ATACGCGG | -0.016 |
| GCAAAAGA | 0.0641 |
| GTGTTTAA | 0.113 |
| ACGATTAG | 0.0965 |
| ATAGCCCG | -0.218 |
| ATTCCTCC | -0.0463 |
| AAGTGATT | 0.0989 |
| CTGTTCGA | -0.101 |
| GGGTGAAC | -0.055 |
| CTAACGAA | -0.0418 |
| ATAGACCG | -0.127 |
| GACTTTTA | -0.0998 |
| CTGTTGCC | -0.123 |
| CTTCGCTC | -0.0505 |
| CAGCTGGG | -0.055 |
| GGTTAATA | -0.0119 |
| GAAATCCA | 0.142 |
| CTGCCGTC | -0.0881 |
| AGACTACC | 0.0115 |
| GCATAGCC | -0.19 |
| ATCAAACC | 0.123 |
| CGTGGATA | 0.0394 |
| AACGAGTA | 0.0734 |

| Sequence | PBM E-score |
| --- | --- |
| AGCACACT | 0.00567 |
| ACGTTCAG | -0.211 |
| GCGGTACA | -0.00728 |
| ATCCAGTC | -0.0107 |
| AAGCGGTC | -0.0575 |
| CAATTGTA | 0.0262 |
| ATCAGATC | 0.0378 |
| ACAACCCC | 0.134 |
| GATGGTAC | -0.0007 |
| CCAACGGA | -0.031 |
| ACCATCGG | -0.0936 |
| AGCGCACT | -0.0126 |
| ATACAGGA | -0.00019 |
| GCTACTCA | 0.0406 |
| AACGATCT | -0.013 |
| ACCGCGTA | 0.00539 |
| CTCAACTC | 0.117 |
| AGAAACTC | -0.0479 |
| CCGGTCAC | -0.16 |
| AGGGACCA | 0.35 |
| ACTGTTAG | 0.00286 |
| AGTCTACC | -0.0666 |
| GCTCCGCC | -0.0308 |
| GCACGAGC | -0.115 |
| ACGTTCGG | -0.268 |

| Sequence | PBM E-score |
| --- | --- |
| AGAAACAT | 0.0682 |
| GCATAGAC | -0.179 |
| GACACCCC | -0.215 |
| AGGACAGC | -0.0372 |
| CACTAACC | 0.0362 |
| ACAAGTGA | 0.0394 |
| CGAAGTGA | 0.079 |
| AAGACGAT | -0.0742 |
| ATGAGCAA | 0.121 |
| GCGTACTA | 0.0164 |
| AGCGCGCC | 0.0741 |
| AAAGGTAC | 0.00989 |
| AATCGATG | 0.0168 |
| CATGTCAC | 0.0174 |
| ATACTGAG | 0.255 |
| TCCCCCGA | -0.243 |
| CCAAAATA | 0.0548 |
| ATGCGAAG | -0.00307 |
| ATCCGAGG | -0.00352 |
| AGGTTGCA | 0.164 |
| CCAGGAGG | -0.0731 |
| CAGGCCAG | -0.0376 |
| AAATCGAA | 0.111 |
| CAGACAAG | 0.0707 |
| GATGGTTA | -0.112 |

Quoted from the listing for reference:

| Sequence | PBM E-score |
| --- | --- |
| AAAGGTAC | 0.00989 |
| AATCGATG | 0.0168 |
| CATGTCAC | 0.0174 |
| ATACTGAG | 0.255 |
| TCCCCCGA | -0.243 |

Later entries.

| Sequence | PBM E-score |
| --- | --- |
| ATTAGAAG | 0.117 |
| CAACAGAA | -0.113 |
| CTAAATGC | -0.128 |
| GGGGGAAA | -0.197 |
| AAAGGGAA | -0.0827 |
| CAGTATAC | 0.153 |
| AACGAATG | 0.216 |
| CGGGGTTC | 0.0227 |
| CAAATACG | -0.0443 |
| ATTCAGCA | 0.0155 |
| CTTTTCAA | -0.0189 |
| GGAGCCCC | -0.284 |
| CAAAGAGC | -0.181 |
| GAAAATAC | -0.00515 |
| TGCCCCAA | 0.119 |
| CGTAGACA | -0.125 |
| GAGGTTAC | -0.123 |
| CCTTGTGC | -0.202 |
| CGCCGAGC | 0.0626 |
| CCGTAAAG | 0.0383 |
| AAATCATG | 0.0935 |
| CTGGTGGA | -0.265 |
| GGCGCCCA | 0.173 |
| CGGTGGAC | 0.0182 |
| CCTCCTCC | -0.283 |

| Sequence | PBM E-score |
| --- | --- |
| GATGTGAC | -0.141 |
| GATCGATC | 0.108 |
| CACTCGAG | 0.00134 |
| GACATGGA | 0.045 |
| CCTGGAGA | 0.0343 |
| CCCTGGGA | 0.0906 |
| CAACTACA | 0.0605 |
| ATGTACCA | -0.224 |
| GCCAGCCA | -0.014 |
| AGCAGCCA | 0.0226 |
| TAATGTAA | 0.0569 |
| AGAAACCC | -0.0102 |
| CCCTGAAG | 0.208 |
| GACTTGAA | -0.0965 |
| ACCCGCGG | 0.275 |
| CTCTCCTC | -0.285 |
| CGTTCTAC | -0.147 |
| AGAAAGCC | -0.0236 |
| AAAGGGAT | 0.0813 |
| AGCCTCGA | -0.0885 |
| GCTTACAA | -0.124 |
| AGTCACCG | -0.116 |
| TACCCGCA | 0.167 |
| CAATGGAG | -0.17 |
| CAAGAAAA | 0.0468 |

Shown with bars between the fields: part of the list above
Sequence | PBM E-score
CAGTATAC | 0.153
AACGAATG | 0.216
CGGGGTTC | 0.0227
CAAATACG | -0.0443
ATTCAGCA | 0.0155
CTTTTCAA | -0.0189
GGAGCCCC | -0.284
GAAAATAC | -0.00515
TGCCCCAA | 0.119
CGTAGACA | -0.125
GAGGTTAC | -0.123
CCTTGTGC | -0.202
CGCCGAGC | 0.0626
CCGTAAAG | 0.0383
AAATCATG | 0.0935
CTGGTGGA | -0.265
CGGTGGAC | 0.0182
CCTCCTCC | -0.283
GATGTGAC | -0.141
GATCGATC | 0.108
CACTCGAG | 0.00134
GACATGGA | 0.045
CCTGGAGA | 0.0343
CCCTGGGA | 0.0906
CAACTACA | 0.0605
ATGTACCA | -0.224
GCCAGCCA | -0.014
AGCAGCCA | 0.0226
TAATGTAA | 0.0569
AGAAACCC | -0.0102
CCCTGAAG | 0.208
GACTTGAA | -0.0965
ACCCGCGG | 0.275
CTCTCCTC | -0.285
CGTTCTAC | -0.147
AGAAAGCC | -0.0236
AAAGGGAT | 0.0813
AGCCTCGA | -0.0885
GCTTACAA | -0.124
AGTCACCG | -0.116
TACCCGCA | 0.167
CAATGGAG | -0.17

(listing goes on)

| Sequence | PBM E-score |
| --- | --- |
| CTCGGGCA | 0.0229 |
| ATGACTCC | -0.0893 |
| CGAGCCGA | -0.0924 |
| AGACCATA | 0.0148 |
| CTTAGTGA | 0.0599 |
| GGTACCCA | -0.213 |
| AAGGGCCG | -0.0822 |
| AACATGCC | -0.131 |
| ATTACCAA | 0.0553 |
| CCGCTACA | -0.0582 |
| GCAAGTCC | -0.0298 |
| CCGTCGCC | -0.0104 |
| ACGGACTA | -0.0283 |
| GGTGAATA | 0.104 |
| AAACAGAC | 0.176 |
| ATCTGATC | 0.14 |
| CGCTTAAG | -0.0535 |
| TAACCGAA | -0.0477 |
| AACGTTCA | -0.276 |
| GGTAGGAA | -0.0697 |
| ATCAAAAT | -0.0176 |
| CATGCGTA | 0.0188 |
